The other results are listed elsewhere or left out.
Key:
Experiment in all cases: log2 fold change, soluble protein after heating vs DMSO (PISA); higher = thermal stabilisation; K562 cells, 10 uM, 30 min; active = over 0.2 and 3.5 SD of the protein, either way, in both replicates (recomputed)
erlotinib = compound: C#Cc1cccc(Nc2ncnc3cc(OCCOC)c(OCCOC)cc23)c1 [erlotinib]
Method in brief: (§1)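 Values are thermal stability changes relative to control samples and are taken from duplicates. They are stated as log2 fold changes. Before quantification by TMTpro 16plex LC-MS/MS with equalised channel sums, K562 cells at 2×10^6 cells/mL were treated with 10 μM compound for 30 min, heated in aliquots for 3 min across 48°C-58°C, pooled, extracted in PBS with 0.5% NP-40 at 4°C, and centrifuged at 21,000xg for 90 min to give the soluble supernatant.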

Amino acid sequences for entries named in this document (tags omitted). A change or cut given only in a name is not applied to a line headed by its entry.
UniProt Q9Y2X0: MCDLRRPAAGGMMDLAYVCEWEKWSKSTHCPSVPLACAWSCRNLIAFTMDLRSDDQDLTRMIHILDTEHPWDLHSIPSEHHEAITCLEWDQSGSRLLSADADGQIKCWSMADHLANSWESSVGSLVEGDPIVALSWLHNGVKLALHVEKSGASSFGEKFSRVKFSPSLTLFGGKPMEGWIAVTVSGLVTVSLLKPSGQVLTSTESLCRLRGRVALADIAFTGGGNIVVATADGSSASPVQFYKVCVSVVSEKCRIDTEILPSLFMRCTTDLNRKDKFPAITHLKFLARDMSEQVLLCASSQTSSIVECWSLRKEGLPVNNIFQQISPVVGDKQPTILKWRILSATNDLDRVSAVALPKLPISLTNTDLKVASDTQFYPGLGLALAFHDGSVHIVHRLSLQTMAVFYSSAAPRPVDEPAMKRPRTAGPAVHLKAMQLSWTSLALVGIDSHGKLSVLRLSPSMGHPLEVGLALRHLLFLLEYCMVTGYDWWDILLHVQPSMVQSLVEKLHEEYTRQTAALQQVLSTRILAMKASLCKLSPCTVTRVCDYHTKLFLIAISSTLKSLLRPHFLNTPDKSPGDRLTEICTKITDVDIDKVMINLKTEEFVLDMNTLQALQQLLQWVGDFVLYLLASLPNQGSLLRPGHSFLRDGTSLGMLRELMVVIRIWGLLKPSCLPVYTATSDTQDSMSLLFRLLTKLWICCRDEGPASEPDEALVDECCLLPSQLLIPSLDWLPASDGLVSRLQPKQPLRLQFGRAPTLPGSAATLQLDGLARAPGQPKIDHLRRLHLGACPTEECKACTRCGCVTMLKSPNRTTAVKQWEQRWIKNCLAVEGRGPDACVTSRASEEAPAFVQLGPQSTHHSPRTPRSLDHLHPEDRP
UniProt Q96GW9: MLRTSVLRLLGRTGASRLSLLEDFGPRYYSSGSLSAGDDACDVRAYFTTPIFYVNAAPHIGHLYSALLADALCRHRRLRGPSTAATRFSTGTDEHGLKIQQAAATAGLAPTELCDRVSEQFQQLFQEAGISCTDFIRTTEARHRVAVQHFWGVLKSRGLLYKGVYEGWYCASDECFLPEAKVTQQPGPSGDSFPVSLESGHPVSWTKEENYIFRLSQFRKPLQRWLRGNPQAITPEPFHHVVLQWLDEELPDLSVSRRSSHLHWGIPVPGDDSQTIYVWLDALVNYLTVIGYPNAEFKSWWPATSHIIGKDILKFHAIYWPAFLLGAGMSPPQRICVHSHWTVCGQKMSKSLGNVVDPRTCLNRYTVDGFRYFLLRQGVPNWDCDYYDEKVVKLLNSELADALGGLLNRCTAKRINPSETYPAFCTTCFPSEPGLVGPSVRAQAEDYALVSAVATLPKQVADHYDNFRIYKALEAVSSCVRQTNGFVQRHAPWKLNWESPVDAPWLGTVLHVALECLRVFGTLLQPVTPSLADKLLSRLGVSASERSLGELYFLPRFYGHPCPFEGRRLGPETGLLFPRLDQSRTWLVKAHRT
UniProt Q96GX5: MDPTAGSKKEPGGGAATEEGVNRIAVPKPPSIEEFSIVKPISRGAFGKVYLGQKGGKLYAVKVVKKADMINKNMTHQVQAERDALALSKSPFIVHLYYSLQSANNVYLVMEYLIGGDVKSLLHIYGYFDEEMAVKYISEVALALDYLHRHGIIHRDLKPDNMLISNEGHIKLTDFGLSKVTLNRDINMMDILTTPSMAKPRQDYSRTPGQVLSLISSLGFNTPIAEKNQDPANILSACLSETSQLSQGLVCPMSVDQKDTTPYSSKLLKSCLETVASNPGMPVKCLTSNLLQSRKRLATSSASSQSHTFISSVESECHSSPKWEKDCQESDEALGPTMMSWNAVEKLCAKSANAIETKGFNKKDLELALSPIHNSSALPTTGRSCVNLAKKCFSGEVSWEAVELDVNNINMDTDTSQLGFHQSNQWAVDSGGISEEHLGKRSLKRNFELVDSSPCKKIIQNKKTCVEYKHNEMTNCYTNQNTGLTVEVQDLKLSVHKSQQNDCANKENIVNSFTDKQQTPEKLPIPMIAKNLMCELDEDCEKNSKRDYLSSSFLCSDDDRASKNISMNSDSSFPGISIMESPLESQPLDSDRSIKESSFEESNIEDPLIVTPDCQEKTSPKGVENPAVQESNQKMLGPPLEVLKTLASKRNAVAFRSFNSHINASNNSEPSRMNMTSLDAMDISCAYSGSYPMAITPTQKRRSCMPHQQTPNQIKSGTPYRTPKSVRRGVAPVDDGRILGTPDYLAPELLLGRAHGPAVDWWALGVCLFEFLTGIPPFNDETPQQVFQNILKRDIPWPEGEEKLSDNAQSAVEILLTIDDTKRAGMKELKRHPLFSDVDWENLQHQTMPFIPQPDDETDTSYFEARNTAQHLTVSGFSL
UniProt Q9NPJ6: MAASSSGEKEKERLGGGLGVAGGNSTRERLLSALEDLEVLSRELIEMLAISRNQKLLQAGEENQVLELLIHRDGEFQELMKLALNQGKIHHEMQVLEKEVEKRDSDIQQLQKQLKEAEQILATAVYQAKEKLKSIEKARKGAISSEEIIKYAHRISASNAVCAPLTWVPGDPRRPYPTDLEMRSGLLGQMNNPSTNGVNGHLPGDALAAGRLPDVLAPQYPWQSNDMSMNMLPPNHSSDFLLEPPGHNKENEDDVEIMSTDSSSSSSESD
UniProt Q86W50: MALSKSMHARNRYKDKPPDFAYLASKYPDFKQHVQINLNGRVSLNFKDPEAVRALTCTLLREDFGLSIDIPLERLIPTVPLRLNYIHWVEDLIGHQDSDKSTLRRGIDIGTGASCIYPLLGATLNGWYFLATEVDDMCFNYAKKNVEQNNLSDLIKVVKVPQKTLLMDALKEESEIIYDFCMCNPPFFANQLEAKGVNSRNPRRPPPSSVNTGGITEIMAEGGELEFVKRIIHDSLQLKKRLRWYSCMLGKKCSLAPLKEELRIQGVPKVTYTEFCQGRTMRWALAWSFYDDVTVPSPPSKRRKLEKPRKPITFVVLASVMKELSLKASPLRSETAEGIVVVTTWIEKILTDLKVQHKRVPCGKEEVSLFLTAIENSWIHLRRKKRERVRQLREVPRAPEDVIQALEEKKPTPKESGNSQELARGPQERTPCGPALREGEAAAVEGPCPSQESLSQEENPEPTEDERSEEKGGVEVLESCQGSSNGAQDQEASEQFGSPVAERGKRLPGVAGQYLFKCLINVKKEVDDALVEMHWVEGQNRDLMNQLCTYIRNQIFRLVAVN
UniProt Q9NRN9: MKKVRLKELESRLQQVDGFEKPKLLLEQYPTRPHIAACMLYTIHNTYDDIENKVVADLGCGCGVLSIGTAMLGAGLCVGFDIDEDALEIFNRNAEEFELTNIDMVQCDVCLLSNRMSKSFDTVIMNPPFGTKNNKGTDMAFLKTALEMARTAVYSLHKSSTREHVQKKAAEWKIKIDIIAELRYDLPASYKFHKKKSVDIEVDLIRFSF
UniProt Q9NR56: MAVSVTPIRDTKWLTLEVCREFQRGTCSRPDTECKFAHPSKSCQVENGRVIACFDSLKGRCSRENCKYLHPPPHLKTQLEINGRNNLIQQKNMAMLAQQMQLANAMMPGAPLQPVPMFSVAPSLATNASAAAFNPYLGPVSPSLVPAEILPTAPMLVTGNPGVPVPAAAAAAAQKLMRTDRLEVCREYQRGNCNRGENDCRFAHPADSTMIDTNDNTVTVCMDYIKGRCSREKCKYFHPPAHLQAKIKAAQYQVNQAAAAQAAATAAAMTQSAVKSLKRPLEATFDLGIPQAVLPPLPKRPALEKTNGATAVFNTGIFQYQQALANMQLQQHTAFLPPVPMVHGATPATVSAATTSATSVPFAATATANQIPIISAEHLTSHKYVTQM
UniProt Q8WXB1: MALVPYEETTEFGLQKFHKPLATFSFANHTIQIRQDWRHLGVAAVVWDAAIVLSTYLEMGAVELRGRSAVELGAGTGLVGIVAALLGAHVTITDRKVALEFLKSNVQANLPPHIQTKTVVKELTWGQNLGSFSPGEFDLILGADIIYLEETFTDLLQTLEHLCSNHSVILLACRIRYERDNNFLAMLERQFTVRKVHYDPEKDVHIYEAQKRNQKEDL
UniProt Q8NHS3: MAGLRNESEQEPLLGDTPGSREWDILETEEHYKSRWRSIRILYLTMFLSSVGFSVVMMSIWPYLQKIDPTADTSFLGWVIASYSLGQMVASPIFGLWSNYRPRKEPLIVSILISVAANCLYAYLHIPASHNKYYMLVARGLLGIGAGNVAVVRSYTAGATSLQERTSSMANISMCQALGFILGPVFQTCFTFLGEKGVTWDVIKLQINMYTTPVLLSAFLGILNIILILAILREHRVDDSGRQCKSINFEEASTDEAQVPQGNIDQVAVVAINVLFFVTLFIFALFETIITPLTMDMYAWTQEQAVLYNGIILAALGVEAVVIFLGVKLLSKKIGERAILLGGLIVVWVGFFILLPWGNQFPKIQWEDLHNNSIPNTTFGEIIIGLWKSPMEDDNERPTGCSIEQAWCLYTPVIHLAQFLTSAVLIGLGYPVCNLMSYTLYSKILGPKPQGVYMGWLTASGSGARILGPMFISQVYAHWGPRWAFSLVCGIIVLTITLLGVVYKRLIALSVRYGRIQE
UniProt O95983: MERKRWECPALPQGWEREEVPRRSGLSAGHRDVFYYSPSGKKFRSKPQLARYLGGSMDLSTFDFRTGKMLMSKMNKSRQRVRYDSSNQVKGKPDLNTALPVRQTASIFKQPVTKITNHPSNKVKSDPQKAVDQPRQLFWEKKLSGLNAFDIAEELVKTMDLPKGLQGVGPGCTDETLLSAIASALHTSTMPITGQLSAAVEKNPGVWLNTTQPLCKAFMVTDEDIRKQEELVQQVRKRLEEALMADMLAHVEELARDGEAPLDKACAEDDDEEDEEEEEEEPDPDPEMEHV
UniProt Q86V88: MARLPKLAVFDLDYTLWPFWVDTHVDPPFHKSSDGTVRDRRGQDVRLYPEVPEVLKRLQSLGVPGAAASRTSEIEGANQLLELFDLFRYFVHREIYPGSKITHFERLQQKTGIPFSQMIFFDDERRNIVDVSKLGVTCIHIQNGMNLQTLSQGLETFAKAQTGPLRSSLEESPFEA
UniProt Q6ZWT7: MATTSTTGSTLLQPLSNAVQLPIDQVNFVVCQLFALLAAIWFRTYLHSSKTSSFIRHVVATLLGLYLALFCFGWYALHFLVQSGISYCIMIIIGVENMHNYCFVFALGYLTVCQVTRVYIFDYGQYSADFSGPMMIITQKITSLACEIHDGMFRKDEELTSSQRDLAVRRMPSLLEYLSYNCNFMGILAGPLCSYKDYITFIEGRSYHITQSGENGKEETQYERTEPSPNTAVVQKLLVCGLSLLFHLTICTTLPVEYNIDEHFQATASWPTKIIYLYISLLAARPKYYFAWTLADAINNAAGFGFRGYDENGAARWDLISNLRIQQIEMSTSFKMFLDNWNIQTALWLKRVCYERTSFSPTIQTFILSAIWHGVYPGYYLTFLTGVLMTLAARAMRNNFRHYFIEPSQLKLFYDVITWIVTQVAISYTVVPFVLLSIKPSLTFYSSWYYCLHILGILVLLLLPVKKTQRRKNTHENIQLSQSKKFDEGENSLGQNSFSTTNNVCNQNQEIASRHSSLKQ
UniProt Q96HR3: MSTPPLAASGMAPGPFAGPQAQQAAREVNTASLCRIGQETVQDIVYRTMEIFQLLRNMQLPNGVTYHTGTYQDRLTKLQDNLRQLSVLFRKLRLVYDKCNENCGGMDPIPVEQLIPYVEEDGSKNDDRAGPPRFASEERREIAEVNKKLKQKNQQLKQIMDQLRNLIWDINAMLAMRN
UniProt P49736, whole entry, looked up: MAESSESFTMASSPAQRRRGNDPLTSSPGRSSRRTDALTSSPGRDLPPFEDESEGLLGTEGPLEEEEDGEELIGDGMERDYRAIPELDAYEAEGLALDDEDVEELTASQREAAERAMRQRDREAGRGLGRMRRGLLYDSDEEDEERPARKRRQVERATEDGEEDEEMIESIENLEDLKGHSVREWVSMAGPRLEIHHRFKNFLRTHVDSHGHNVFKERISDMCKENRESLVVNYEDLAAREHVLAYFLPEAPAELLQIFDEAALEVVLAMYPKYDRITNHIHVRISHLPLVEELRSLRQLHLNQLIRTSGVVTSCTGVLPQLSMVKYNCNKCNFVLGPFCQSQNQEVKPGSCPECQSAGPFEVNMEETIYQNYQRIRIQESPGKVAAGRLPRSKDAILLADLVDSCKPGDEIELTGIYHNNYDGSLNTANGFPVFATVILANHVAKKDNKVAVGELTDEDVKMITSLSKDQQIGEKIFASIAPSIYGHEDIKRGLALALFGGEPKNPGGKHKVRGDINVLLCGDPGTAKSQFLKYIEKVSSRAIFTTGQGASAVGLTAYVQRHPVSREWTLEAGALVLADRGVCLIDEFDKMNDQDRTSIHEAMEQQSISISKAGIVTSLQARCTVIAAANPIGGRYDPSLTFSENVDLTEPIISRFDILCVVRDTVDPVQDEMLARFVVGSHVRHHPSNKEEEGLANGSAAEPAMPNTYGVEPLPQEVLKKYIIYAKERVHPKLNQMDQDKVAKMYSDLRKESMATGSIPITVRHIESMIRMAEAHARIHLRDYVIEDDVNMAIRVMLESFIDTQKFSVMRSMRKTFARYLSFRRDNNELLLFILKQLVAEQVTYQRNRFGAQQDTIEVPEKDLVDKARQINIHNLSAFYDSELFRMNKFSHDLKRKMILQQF

[1] = compound: C/C(=N\NC(=O)C1=CC(=CC=C1)S(=O)(=O)N2CCOCC2)/C3=C(C=CC(=C3)Cl)O
Method in brief: as §1

[2] = compound: C1=CC(=C(C=C1Cl)C2=NC3=NC=CN=C3C(=N2)NC4=CC=NC=C4)F
Method in brief: as §1

[3] = compound: C1=CC(=CC=C1C2=NC3=C(N2)C=C(C=C3)C(=O)N)OC4=CC=C(C=C4)Cl
Method in brief: as §1

[4] = compound: C1=CC2=C(C=CC(=C2)/C=C\3/C(=O)NC(=NCC4=CC=CS4)S3)N=C1
Method in brief: as §1

[5] = compound: C1=CC2=NC=CN=C2C=C1/C=C/3\C(=O)NC(=O)S3
Method in brief: as §1

[6] = compound: C1=CC=C(C=C1)C2=NC(=C(N2)C3=CC=NC=C3)C4=CC(=C(C=C4)Cl)O
Method in brief: as §1

[7] = compound: C1=CC=C2C(=C1)C3=NNC4=CC=CC(=C43)C2=O
Method in brief: as §1

[8] = compound: C1CCN(C1)C(=O)NC2=CC=CC(=C2)NC3=NC=C(C(=N3)NCCC4=CN=CN4)Br
Method in brief: as §1

[9] = compound: C1CN(CCC1(CC2=CC=C(C=C2)Cl)N)C3=NC=NC4=C3C=CN4
Method in brief: as §1

Measured: log2 fold change

MED16 (UniProt Q9Y2X0)
inactive: erlotinib -0.019 | [1] -0.085 | [2] 0.065 | [3] -0.038 | [4] 0.038 | [5] 0.051 | [6] -0.067 | [7] -0.155 | [8] 0.034 | [9] -0.046

MCCC1 (UniProt Q96RQ3)
inactive: erlotinib 0.008 | [1] -0.007 | [2] 0.112 | [3] 0.116 | [4] 0.048 | [5] 0.009 | [6] 0.048 | [7] 0.016 | [8] -0.025 | [9] -0.016

MDH1 isoform 3 (UniProt P40925)
inactive: erlotinib -0.004 | [1] 0.007 | [2] 0.086 | [3] -0.019 | [4] -0.03 | [5] -0.02 | [6] -0.001 | [7] 0.009 | [8] 0.001 | [9] 0.018

ME1 (UniProt P48163)
inactive: erlotinib -0.02 | [1] -0.001 | [2] 0.02 | [3] -0.006 | [4] 0.051 | [5] 0.015 | [6] 0.014 | [7] -0.019 | [8] 0.028 | [9] 0.037

MBLAC2 (UniProt Q68D91)
inactive: erlotinib 0.04 | [1] -0.009 | [2] -0.033 | [3] 0.051 | [4] 0.098 | [5] 0.047 | [6] 0.01 | [7] -0.032 | [8] -0.097 | [9] 0.017

MARS2 (UniProt Q96GW9)
inactive: erlotinib -0.015 | [1] 0.002 | [2] 0.025 | [3] 0.018 | [4] 0 | [5] 0.024 | [6] -0.01 | [7] -0.027 | [8] -0.001 | [9] 0.017

MASTL (UniProt Q96GX5)
inactive: erlotinib 0.008 | [1] 0.045 | [2] 0.026 | [3] -0.015 | [4] -0.076 | [5] 0.124 | [6] -0.087 | [7] 0.007

MED4 (UniProt Q9NPJ6)
inactive: erlotinib 0.076 | [1] -0.067 | [2] 0.017 | [3] -0.01 | [4] 0.031 | [5] 0.007 | [6] -0.053 | [7] -0.066 | [8] -0.031 | [9] -0.009

METTL16 (UniProt Q86W50)
inactive: erlotinib 0 | [1] 0.021 | [2] -0.004 | [3] 0.002 | [4] 0.013 | [5] 0.035 | [6] 0.034 | [7] -0.097 | [8] -0.053 | [9] 0.012

METTL5 (UniProt Q9NRN9)
inactive: erlotinib 0.035 | [1] 0.021 | [2] -0.011 | [3] 0.021 | [4] -0.041 | [5] 0.007 | [6] -0.048 | [7] 0.01 | [8] 0.003 | [9] 0.071

MECR (UniProt Q9BV79)
inactive: erlotinib 0.004 | [1] 0.059 | [2] 0.123 | [3] -0.02 | [4] -0.026 | [5] -0.065 | [6] 0.028 | [7] -0.024 | [8] 0.006 | [9] -0.004

METTL14 (UniProt Q9HCE5)
inactive: erlotinib -0.014 | [1] 0.055 | [2] 0.031 | [3] 0.008 | [4] -0.018 | [5] 0.027 | [6] 0.001 | [7] 0.037 | [8] 0.022 | [9] 0.007

MBNL1 (UniProt Q9NR56)
inactive: erlotinib 0 | [1] 0.018 | [2] 0.034 | [3] -0.052 | [4] -0.078 | [5] 0.046 | [6] 0.018 | [7] -0.057 | [8] 0.036 | [9] 0.003

METTL21A (UniProt Q8WXB1)
inactive: erlotinib 0.158 | [1] -0.146 | [2] 0.016 | [3] 0.084 | [4] -0.053 | [5] 0.035 | [6] 0.029 | [7] 0.061 | [8] -0.091 | [9] 0.053

MBOAT7 (UniProt Q96N66)
inactive: erlotinib 0.018 | [1] 0.025 | [2] 0.064 | [3] 0.022 | [4] 0.036 | [5] 0.027 | [6] 0.016 | [7] -0.014 | [8] 0.021 | [9] 0.084

MESD (UniProt Q14696)
inactive: erlotinib -0.009 | [1] 0.015 | [2] 0.005 | [3] -0.013 | [4] -0.013 | [5] 0.03 | [6] -0.03 | [7] -0.018 | [8] 0.004 | [9] 0.003

MAT2B (UniProt Q9NZL9)
inactive: erlotinib 0.018 | [1] 0.024 | [2] 0 | [3] 0.012 | [4] 0.022 | [5] 0.005 | [6] -0.049 | [7] -0.004 | [8] -0.002 | [9] 0.02

MCRIP1 (UniProt I3L4Q0)
inactive: erlotinib -0.065 | [1] -0.012 | [2] 0.001 | [3] 0.002 | [4] 0.012 | [5] 0.016 | [6] -0.071 | [7] -0.057 | [8] -0.009 | [9] -0.022

MFAP1 (UniProt P55081)
inactive: erlotinib -0.007 | [1] -0.069 | [2] -0.038 | [3] 0.002 | [4] -0.039 | [5] 0.047 | [6] -0.098 | [7] -0.054 | [8] -0.038 | [9] 0.044

MFSD8 (UniProt Q8NHS3)
inactive: erlotinib 0.047 | [1] -0.018 | [2] -0.012 | [3] -0.089 | [4] 0.009 | [5] 0.166 | [6] 0 | [7] -0.054 | [8] -0.033 | [9] -0.091

MCL1 (UniProt Q07820)
inactive: erlotinib -0.225 | [1] 0 | [2] -0.037 | [3] -0.01 | [4] -0.057 | [5] 0.027 | [6] -0.121 | [7] -0.161 | [8] -0.039 | [9] 0

MBD3 (UniProt O95983)
inactive: erlotinib -0.023 | [1] 0.037 | [2] -0.035 | [3] -0.005 | [4] -0.022 | [5] 0.037 | [6] -0.014 | [7] -0.079 | [8] -0.004 | [9] 0.045

MGAT5 (UniProt Q09328)
inactive: erlotinib -0.003 | [1] -0.026 | [2] -0.187 | [3] 0.012 | [4] 0.042 | [5] -0.028 | [6] -0.038 | [7] 0 | [8] -0.14 | [9] 0.012

Seven consecutive records from above:
MED16 (UniProt Q9Y2X0)
inactive: erlotinib -0.019 | [1] -0.085 | [2] 0.065 | [3] -0.038 | [4] 0.038 | [5] 0.051 | [6] -0.067 | [7] -0.155 | [8] 0.034 | [9] -0.046

MCCC1 (UniProt Q96RQ3)
inactive: erlotinib 0.008 | [1] -0.007 | [2] 0.112 | [3] 0.116 | [4] 0.048 | [5] 0.009 | [6] 0.048 | [7] 0.016 | [8] -0.025 | [9] -0.016

MDH1 isoform 3 (UniProt P40925)
inactive: erlotinib -0.004 | [1] 0.007 | [2] 0.086 | [3] -0.019 | [4] -0.03 | [5] -0.02 | [6] -0.001 | [7] 0.009 | [8] 0.001 | [9] 0.018

ME1 (UniProt P48163)
inactive: erlotinib -0.02 | [1] -0.001 | [2] 0.02 | [3] -0.006 | [4] 0.051 | [5] 0.015 | [6] 0.014 | [7] -0.019 | [8] 0.028 | [9] 0.037

MBLAC2 (UniProt Q68D91)
inactive: erlotinib 0.04 | [1] -0.009 | [2] -0.033 | [3] 0.051 | [4] 0.098 | [5] 0.047 | [6] 0.01 | [7] -0.032 | [8] -0.097 | [9] 0.017

MARS2 (UniProt Q96GW9)
inactive: erlotinib -0.015 | [1] 0.002 | [2] 0.025 | [3] 0.018 | [4] 0 | [5] 0.024 | [6] -0.01 | [7] -0.027 | [8] -0.001 | [9] 0.017

MASTL (UniProt Q96GX5)
inactive: erlotinib 0.008 | [1] 0.045 | [2] 0.026 | [3] -0.015 | [4] -0.076 | [5] 0.124 | [6] -0.087 | [7] 0.007

More records.

MBD2 (UniProt Q9UBB5)
inactive: erlotinib 0.263 | [1] -0.121 | [2] -0.118 | [3] 0.056 | [4] 0.16 | [5] 0.069 | [6] 0.06 | [7] 0.072 | [8] 0.132 | [9] -0.082

MECP2 isoform 2 (UniProt P51608)
inactive: erlotinib -0.107 | [1] -0.272 | [2] -0.39 | [3] 0.057 | [4] -0.062 | [5] -0.08 | [6] -0.023 | [7] -0.051 | [8] 0.052 | [9] -0.134

MDP1 (UniProt Q86V88)
inactive: erlotinib 0.008 | [1] -0.017 | [2] 0.069 | [3] -0.01 | [4] 0.004 | [5] 0.059 | [6] 0.059 | [7] -0.041 | [8] 0.004 | [9] 0.017

MBOAT2 (UniProt Q6ZWT7)
inactive: erlotinib -0.013 | [1] 0 | [2] 0.008 | [3] 0.014 | [4] 0.037 | [5] 0.006 | [6] 0.023 | [7] -0.01 | [8] 0.022 | [9] 0.094

MED30 (UniProt Q96HR3)
inactive: erlotinib -0.111 | [1] 0.011 | [2] -0.059 | [3] -0.025 | [4] 0.013 | [5] 0.057 | [6] -0.045 | [7] -0.024 | [8] -0.03 | [9] -0.021

MCM2 (UniProt P49736)
inactive: erlotinib -0.026 | [1] 0.052 | [2] 0.064 | [3] 0.009 | [4] 0.021 | [5] 0.024 | [6] 0.007 | [7] 0.026 | [8] -0.025 | [9] -0.007

MFF (UniProt Q9GZY8)
inactive: erlotinib 0.02 | [1] -0.022 | [2] 0.011 | [3] -0.024 | [4] 0.107 | [5] 0.057 | [6] -0.008 | [7] -0.062 | [8] 0.007 | [9] 0.032

Source: the supplement of paper PMC10849652
